Test results reported in publication PMC7819943, “Rice protein-binding microarrays: a tool to detect cis-acting elements near promoter regions in rice”.
This is one part of the list.

By UniProt entry, the sequences of proteins in these tests, tags left out.
UniProt Q0JBA9, entry or part of it: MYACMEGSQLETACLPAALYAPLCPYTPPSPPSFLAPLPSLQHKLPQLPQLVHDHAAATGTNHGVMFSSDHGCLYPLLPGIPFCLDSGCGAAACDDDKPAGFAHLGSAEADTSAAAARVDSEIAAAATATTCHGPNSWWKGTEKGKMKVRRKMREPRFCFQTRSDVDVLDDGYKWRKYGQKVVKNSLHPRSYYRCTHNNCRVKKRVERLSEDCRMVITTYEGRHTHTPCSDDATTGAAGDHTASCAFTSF

Biological target: OsWRKY34 (Oryza sativa, UniProt Q0JBA9 1-250)
Assay: protein-binding microarray (RPBM); PBS, 2% BSA, 51.3 ng/ul salmon testes DNA, 50 uM zinc acetate, 200 nM TF, 25 C, 1 h; high values mean tight binding
Conditions: protein: recombinant; tags: N-terminal polyhistidine and DsRed monomer fusion (pET32a); label: CyDye5-dUTP incorporated in the synthesized complementary strand; 3' TTTTT single-stranded linker to array surface; dsDNA, one strand shown
How it was run: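 Polyhistidine-tagged DsRed fusions of transcription factors, joined at the N-terminus, were expressed in E. coli BL21-CodonPlus and isolated on Ni–NTA. They were incubated at 200 nM for 1 h at 25 °C on a custom Agilent array, double-stranded and BSA-blocked, in PBS with 2% BSA, salmon testes DNA and 50 µM zinc acetate. The binding signal is per-feature fluorescence intensity (arbitrary units) read on an Axon 4000B scanner after washing.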

Sequence | binding signal
CCATGGGGATGGTGGTGCAGGTGCTCGAGGGGCTCGTCGACGGAGTCACCTAGTGCAG | 8030 fluorescence intensity (a.u.)
CACCACCACCCGCACCGTCCGCACACTCGTCCGCTTCCGTCGGAGTCACCTAGTGCAG | 11000 fluorescence intensity (a.u.)
GTCTACGTTTAATACTTCAATGTGTGACCGTGTATCCGATCGGAGTCACCTAGTGCAG | 8490 fluorescence intensity (a.u.)
AGTTCACCCTCCCACAACGTTGTAACTTCTTTAAAGCAAACGGAGTCACCTAGTGCAG | 8500 fluorescence intensity (a.u.)
CGGCCTTTTTTTAAGCTTATCTCTATCACTCGCTCTTCCGCGGAGTCACCTAGTGCAG | 12600 fluorescence intensity (a.u.)
CACGTAAAATTTGTATCTCCATTATGCATCTTTTTAATTTCGGAGTCACCTAGTGCAG | 13800 fluorescence intensity (a.u.)
CTTACCTCATCACCGTCGTCGCGATCCTCAAATCTCTTTCCGGAGTCACCTAGTGCAG | 8410 fluorescence intensity (a.u.)
CTTTGCTTTCTCAGCTTCTGTCCTTGTTTTGACTTTATGTCGGAGTCACCTAGTGCAG | 9520 fluorescence intensity (a.u.)
CCTTGTCTGTACTCTCTCTACTTTCCACCTCTATCCGCCTCGGAGTCACCTAGTGCAG | 9420 fluorescence intensity (a.u.)
GTGAAAAATTTTAGGGTGGGATCTAAACAGGGCCTAGGAACGGAGTCACCTAGTGCAG | 8990 fluorescence intensity (a.u.)
CGTAGCTCCAAGCCTCCAATCCTCGCATATTGTCACGGCCCGGAGTCACCTAGTGCAG | 9320 fluorescence intensity (a.u.)
GCTCACACATTACTCATAATATTGTTTCATTTTCTAACACCGGAGTCACCTAGTGCAG | 10300 fluorescence intensity (a.u.)
TGCCCCATCGCCGCCGCTGCCGCCCATCTTCTCCACTGCTCGGAGTCACCTAGTGCAG | 8970 fluorescence intensity (a.u.)
CCATTGCACACACCTCACTTGCTCTTCTCTCTCTCTCTATCGGAGTCACCTAGTGCAG | 13800 fluorescence intensity (a.u.)
TCCATTGCCGCTGGTCGCACCGTCCTCGACTTCCGCGTCCCGGAGTCACCTAGTGCAG | 8460 fluorescence intensity (a.u.)
CGTCTCTAAATACTTGACGCCGTTGACTTTTTTAAATATGCGGAGTCACCTAGTGCAG | 26900 fluorescence intensity (a.u.)
TTCTTCCTCGCCGCCGCCGCCGTCGTCCCACCGGCGCCGCCGGAGTCACCTAGTGCAG | 10000 fluorescence intensity (a.u.)
AGAGCCGCTTGTTGCTCCGTGCTATTTTTTCGTTTCTGGACGGAGTCACCTAGTGCAG | 9630 fluorescence intensity (a.u.)
TCGTCTCGTCTCGTCTCCCTCGCGAGAGCTTCCCACCATTCGGAGTCACCTAGTGCAG | 9290 fluorescence intensity (a.u.)
ACCACTCTGCACTTCCGCTAGTCCCACTCCCACCACGGCGCGGAGTCACCTAGTGCAG | 9220 fluorescence intensity (a.u.)
CGCTTTGCCTTTTGCTGCCCGCTGCCTGCTTTGCCCACGACGGAGTCACCTAGTGCAG | 10500 fluorescence intensity (a.u.)
AATGTGTGTGTTGTACCCAATTTATTTAGCCAAAATGAAACGGAGTCACCTAGTGCAG | 9000 fluorescence intensity (a.u.)
GAAAAAAAAATGCGTTGACCGAGGGAAGACGAGATCAGTGCGGAGTCACCTAGTGCAG | 10400 fluorescence intensity (a.u.)
GTTTTGCTATGTGGATTGATCGTTTGCTGTGTTCGTTGGACGGAGTCACCTAGTGCAG | 10700 fluorescence intensity (a.u.)
GCTTCTTTAATCGTTGTTGATGTTAAATTCTAATTTACCACGGAGTCACCTAGTGCAG | 9630 fluorescence intensity (a.u.)
CATTCGCTTTTCCCACCTAACTCTACTACTCATCCAATCACGGAGTCACCTAGTGCAG | 8380 fluorescence intensity (a.u.)
CATCTGTCCCATCTTGTTTTTAATCCTGTGTCCGTCATTGCGGAGTCACCTAGTGCAG | 8920 fluorescence intensity (a.u.)

Some values from the entries so far:
Entry for GTTTTGCTATGTGGATTGATCGTTTGCTGTGTTCGTTGGACGGAGTCACCTAGTGCAG under binding signal: 10700 fluorescence intensity (a.u.)
Entry for TTCTTCCTCGCCGCCGCCGCCGTCGTCCCACCGGCGCCGCCGGAGTCACCTAGTGCAG under binding signal: 10000 fluorescence intensity (a.u.)

Later entries:

Sequence | binding signal
CACATTCCGTCCTGCTACCGTCACGTCTCCATAAAGCCATCGGAGTCACCTAGTGCAG | 9770 fluorescence intensity (a.u.)
CACACACATGGTTCCTCCTTCCCTTTGACTCCACCATGCTCGGAGTCACCTAGTGCAG | 8150 fluorescence intensity (a.u.)
CTGATTACCTCTTGTCTAAACTAACGTCCTCAAGTGGAATCGGAGTCACCTAGTGCAG | 8140 fluorescence intensity (a.u.)
ACGTGGGGTGATTCTACGACCCGCCTCGTCCGCTTACTTACGGAGTCACCTAGTGCAG | 8400 fluorescence intensity (a.u.)
GTATTATATTATTAATTAATCGCCGTCACCTCGTCGCCATCGGAGTCACCTAGTGCAG | 8090 fluorescence intensity (a.u.)
GTTTCTAGCTTTAACTTTTTGTTGGCTGCCTTTTGTTGTTCGGAGTCACCTAGTGCAG | 11700 fluorescence intensity (a.u.)
TTGTTAATGCTAATTTTATCAACATGTGCTTTTCTTTTTACGGAGTCACCTAGTGCAG | 9500 fluorescence intensity (a.u.)
CTTCTCACTCTTCTCGCGTCCTTGCAGGCTTTTTCCTCCACGGAGTCACCTAGTGCAG | 9530 fluorescence intensity (a.u.)
TTGTCAATTGGCACTCTGAAAGTGCCTGCGTGGTGGTTCTCGGAGTCACCTAGTGCAG | 9390 fluorescence intensity (a.u.)
TCTCGTTATTGGTGTGTTACGAGTAACCTGTGTGTTGTTACGGAGTCACCTAGTGCAG | 10900 fluorescence intensity (a.u.)
GCCCACTCCTCCTTCTCGCCGCTGGCGACTCTGTTGGGCCCGGAGTCACCTAGTGCAG | 8820 fluorescence intensity (a.u.)
ACTTGTCACCACGGGGCGGCACACTACACTCCACGCGAGCCGGAGTCACCTAGTGCAG | 8210 fluorescence intensity (a.u.)
TTTGCAATCATTTCCTGTACCTTGTCCAGATTCTAGCTCTCGGAGTCACCTAGTGCAG | 9710 fluorescence intensity (a.u.)
TAGCCTACATGTCTCTTTTATTTCTCTTTGTTCGGTTATTCGGAGTCACCTAGTGCAG | 12900 fluorescence intensity (a.u.)
ACACAGCCTTACTGTAGTTTTCAGCTTCTGAATGTGCTTCCGGAGTCACCTAGTGCAG | 8050 fluorescence intensity (a.u.)
TCCCATCTCTCGAATCGACGGCTTCCGCGTCTTCGCGAAGCGGAGTCACCTAGTGCAG | 9330 fluorescence intensity (a.u.)
CTGCATATCCGCTTGCTTCCACAGTTCCACTTGCATCTTGCGGAGTCACCTAGTGCAG | 9190 fluorescence intensity (a.u.)
TTTGGTTTGGTTAGTTTCAAGGTCTCGGCCCCATGACTAGCGGAGTCACCTAGTGCAG | 9790 fluorescence intensity (a.u.)
GGTATTTAAACAACCATACTAACGGACCCATCGTTTCGCTCGGAGTCACCTAGTGCAG | 8530 fluorescence intensity (a.u.)
GCTCGGCGGCGCCGCGGCGGCGGTGGCGGAGGCGGGGATGCGGAGTCACCTAGTGCAG | 8910 fluorescence intensity (a.u.)
AACTCCTGGAACGGTTTTTGTACCCTTGTGCCGGCCGAGACGGAGTCACCTAGTGCAG | 9810 fluorescence intensity (a.u.)
AATTACTATAACACATCTTCCTAACAAATGCACCTCAATACGGAGTCACCTAGTGCAG | 8050 fluorescence intensity (a.u.)
CAATTGATCCCTGTATTGGTCCGCTTAGGTTGTTCAATGACGGAGTCACCTAGTGCAG | 9690 fluorescence intensity (a.u.)
GAAGATGCATTCTTGATTCCGTGTGTTTCTCCTTGCTTATCGGAGTCACCTAGTGCAG | 11900 fluorescence intensity (a.u.)
TTTCTTTCTTTCTTTCTTGGGATCTTTTCCTTCTTTTTTTCGGAGTCACCTAGTGCAG | 12600 fluorescence intensity (a.u.)
TCTACCTTGGTTTTTCATCCATAATAAGTTTAGTATTTCTCGGAGTCACCTAGTGCAG | 9480 fluorescence intensity (a.u.)
GTAGACCAGCGAGCAAAGACCCACTCCACCACACTTCCATCGGAGTCACCTAGTGCAG | 10300 fluorescence intensity (a.u.)

Some of the entries above, set out differently:

| Sequence | binding signal |
| --- | --- |
| TCTACCTTGGTTTTTCATCCATAATAAGTTTAGTATTTCTCGGAGTCACCTAGTGCAG | 9480 fluorescence intensity (a.u.) |
| GTAGACCAGCGAGCAAAGACCCACTCCACCACACTTCCATCGGAGTCACCTAGTGCAG | 10300 fluorescence intensity (a.u.) |
